{"source": "patent US12384817B2", "about": "“Peptide having protective activity against cell damage caused by particulate matter, and uses for same” (CAREGEN CO., LTD., priority 2020, dated 2025)", "test_system": "aryl hydrocarbon receptor (AHR)", "test": "Nuclear translocation test of AHR (western blot of cell nucleus extracts)", "type": "cell-based", "details": "HaCaT human keratinocytes, peptide pretreatment 1 hour at 20, 100, 200 μM, then 50 μg/cm^2 urban particulate matter 1 hour, FIG. 2", "note": "At least one peptide structure holds a part that was inferred or is arguable (an end, a ring closure or a residue). No end group written: not given here."}
{"sequence": "SSNAEVLALF [SEQ ID NO: 1, SSNAEVLALF]", "values": [{"measurement": "level of the nuclear translocation of AHR increased by the treatment of particulate matter", "result": "reduced definitely"}]}
